# Assay results reported in the supplement of paper PMC8728848.
# Some of the results follow.
# Columns and labels:
# Assay in all cases: glycan array binding signal (z-score within array); higher = stronger binding
# Conditions in all cases: glycan notation: IUPAC condensed, linker removed
# [1] = molecular target: Gal3S(b1-4)Glc
# In short: (§1)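 The Consortium for Functional Glycomics database supplied 3228 glycan arrays, of which those lacking an available protein sequence were dropped. The binding signal, a within-array Z-score, was averaged across arrays of the same protein sequence and across linkers. Negative scores can be read as non-binding.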
# [2] = molecular target: Gal3S(b1-4)Glc6S
# In short: as §1
# [3] = molecular target: Gal3S(b1-4)GlcNAc
# In short: as §1
# [4] = molecular target: Gal3S(b1-4)[Fuc(a1-3)]Glc6S
# In short: as §1
# [5] = molecular target: Gal3S(b1-4)[Fuc(a1-3)]GlcNAc
# In short: as §1
# [6] = molecular target: Gal3S(b1-4)[Fuc(a1-3)]GlcNAc6S
# In short: as §1
# [7] = molecular target: Gal3S4S(b1-4)GlcNAc
# In short: as §1
# [8] = molecular target: Gal3S6S(b1-4)GlcNAc
# In short: as §1
# [9] = molecular target: Gal3S6S(b1-4)GlcNAc6S
# In short: as §1
# [10] = molecular target: Gal4S(b1-4)GlcNAc
# In short: as §1
# [11] = molecular target: Gal4S6S(b1-4)GlcNAc
# In short: as §1
# [12] = molecular target: Gal6P(b1-4)GlcNAc
# In short: as §1
# [13] = molecular target: Gal6S(b1-3)GlcNAc
# In short: as §1
# [14] = molecular target: Gal6S(b1-3)GlcNAc6S
# In short: as §1
# [15] = molecular target: Gal6S(b1-4)Glc
# In short: as §1
# [16] = molecular target: Gal6S(b1-4)Glc6S
# In short: as §1
# [17] = molecular target: Gal6S(b1-4)GlcNAc
# In short: as §1
# [18] = molecular target: Gal6S(b1-4)GlcNAc6S
# In short: as §1
# [19] = molecular target: GalNAc(a1-3)Gal
# In short: as §1
# [20] = molecular target: GalNAc(a1-3)GalNAc
# In short: as §1
# [21] = molecular target: GalNAc(a1-3)GalNAc(b1-3)Gal(a1-4)Gal(b1-4)Glc
# In short: as §1
# [22] = molecular target: GalNAc(a1-3)GalNAc(b1-3)Gal(a1-4)Gal(b1-4)GlcNAc
# In short: as §1
# [23] = molecular target: GalNAc(b1-3)Gal
# In short: as §1
# [24] = molecular target: GalNAc(b1-3)Gal(a1-4)Gal(b1-4)GlcNAc
# In short: as §1
# [25] = molecular target: GalNAc(b1-3)Gal(a1-4)Gal(b1-4)GlcNAc(b1-3)Gal(b1-4)Glc
# In short: as §1
# [26] = molecular target: GalNAc(b1-3)Gal(a1-6)Gal(b1-4)Glc
# In short: as §1
# [27] = molecular target: GalNAc(b1-3)GalNAc
# In short: as §1
# [28] = molecular target: GalNAc(b1-3)GlcNAc
# In short: as §1
# [29] = molecular target: GalNAc(b1-4)Gal(b1-4)Glc
# In short: as §1
# [30] = molecular target: GalNAc(b1-4)GlcNAc
# In short: as §1
binder,measurement,setting,value
Awp1 (Candida glabrata) (protein) MSLITIFAFLIKATLVLSLDILTPTTLTGDQTFNEDVSVVSSLTLNDGSQYLFNNLLQIAPSSASVTANALAAVSVFTFSLPPSSSLSNSGTLIISNSNTGPSTEQHIVITPNVMANTGTITLSLAHTNTDSSSTLIIDPVTFYNTGTINYESIGSETNDPSLTGNILSIGSSGRTLQNLGTINLNAANSYYLLGTITENSGSINVQKGFLYVNALDFIGNTINLSTTTALAFISPVSQVVRVRGVFFGNIIASVGSSGTFSYNTQTGILTVTTNGVYSYDIGCGYNPALMSGQQETLSFQGNPYDTFLVLVNQPIPSDLTCAAVSSSITPSSSVEPSSSVVPSSSVEPSSSVEPSSSVEPSSSVEPSSSVEPSSSVEPSSSVEPSSSVEPSSSVEPSSSVEPSSSVEPSSSVEPSSSVEPSSSVEPSSSVEPSSSVEPSSSVEPSSSVEPSSSVEPSSLIVPSSSVEPSSSVLPSSSVVPSSSVEPSTPPIPSSSVEPSSSVVPSSPAVPSSSVEPSTPPIPSSSVVSASVFDTSSTLPSSPSVPPSSVSPSTISTPSSSAAPSSFCPTCVSSGTPPAPSSSAIVPTSSAGGGNGGDNREPGAAGQPGAAGQPGAAGQPGAAGQPGAAGQPGAAGQPGAAGQPGAAGQPGAAGQPGAAGQPGAGFGVGSEQPTPGAGAGSGSADGNQSGTGSGTGNGQQGSGQAGSGQAGSGQEGSGQAGSGQAGSGQAGSGQAGSGQAGLDNTASGQSEGGQASAMDGDQSGRDGQSNSGSLLQPNAQQGTGSGTGSDIGADQASGESPGQIGDAQPGSGTDQSSGRHSLAAEARTSQSHSLAADARTRSTTRQTSVIAPDTAPGTASGTAPGTAPGTAVVTTFHGCGTVNHKGMINILLALALLVLL,glycan array binding signal (z-score),[1],-0.209
same,glycan array binding signal (z-score),[2],-0.018
same,glycan array binding signal (z-score),[3],-0.254
same,glycan array binding signal (z-score),[4],0.387
same,glycan array binding signal (z-score),[5],-0.505
same,glycan array binding signal (z-score),[6],0.421
same,glycan array binding signal (z-score),[7],-1.05
same,glycan array binding signal (z-score),[8],0.465
same,glycan array binding signal (z-score),[9],0.942
same,glycan array binding signal (z-score),[10],-0.578
same,glycan array binding signal (z-score),[11],-1.01
same,glycan array binding signal (z-score),[12],0.76
same,glycan array binding signal (z-score),[13],-0.891
same,glycan array binding signal (z-score),[14],0.36
same,glycan array binding signal (z-score),[15],-0.577
same,glycan array binding signal (z-score),[16],-0.435
same,glycan array binding signal (z-score),[17],0.718
same,glycan array binding signal (z-score),[18],0.772
same,glycan array binding signal (z-score),[19],0.064
same,glycan array binding signal (z-score),[20],0.633
same,glycan array binding signal (z-score),[21],-0.907
same,glycan array binding signal (z-score),[22],0.466
same,glycan array binding signal (z-score),[23],-0.242
same,glycan array binding signal (z-score),[24],0.743
same,glycan array binding signal (z-score),[25],-0.13
same,glycan array binding signal (z-score),[26],-1.22
same,glycan array binding signal (z-score),[27],-0.489
same,glycan array binding signal (z-score),[28],0.296
same,glycan array binding signal (z-score),[29],0.511
same,glycan array binding signal (z-score),[30],-0.049

# Retrieved one by one from the list above (two):
binder,measurement,setting,value
Awp1 (Candida glabrata) (protein) MSLITIFAFLIKATLVLSLDILTPTTLTGDQTFNEDVSVVSSLTLNDGSQYLFNNLLQIAPSSASVTANALAAVSVFTFSLPPSSSLSNSGTLIISNSNTGPSTEQHIVITPNVMANTGTITLSLAHTNTDSSSTLIIDPVTFYNTGTINYESIGSETNDPSLTGNILSIGSSGRTLQNLGTINLNAANSYYLLGTITENSGSINVQKGFLYVNALDFIGNTINLSTTTALAFISPVSQVVRVRGVFFGNIIASVGSSGTFSYNTQTGILTVTTNGVYSYDIGCGYNPALMSGQQETLSFQGNPYDTFLVLVNQPIPSDLTCAAVSSSITPSSSVEPSSSVVPSSSVEPSSSVEPSSSVEPSSSVEPSSSVEPSSSVEPSSSVEPSSSVEPSSSVEPSSSVEPSSSVEPSSSVEPSSSVEPSSSVEPSSSVEPSSSVEPSSSVEPSSSVEPSSSVEPSSLIVPSSSVEPSSSVLPSSSVVPSSSVEPSTPPIPSSSVEPSSSVVPSSPAVPSSSVEPSTPPIPSSSVVSASVFDTSSTLPSSPSVPPSSVSPSTISTPSSSAAPSSFCPTCVSSGTPPAPSSSAIVPTSSAGGGNGGDNREPGAAGQPGAAGQPGAAGQPGAAGQPGAAGQPGAAGQPGAAGQPGAAGQPGAAGQPGAAGQPGAGFGVGSEQPTPGAGAGSGSADGNQSGTGSGTGNGQQGSGQAGSGQAGSGQEGSGQAGSGQAGSGQAGSGQAGSGQAGLDNTASGQSEGGQASAMDGDQSGRDGQSNSGSLLQPNAQQGTGSGTGSDIGADQASGESPGQIGDAQPGSGTDQSSGRHSLAAEARTSQSHSLAADARTRSTTRQTSVIAPDTAPGTASGTAPGTAPGTAVVTTFHGCGTVNHKGMINILLALALLVLL,glycan array binding signal (z-score),[22],0.466
same,glycan array binding signal (z-score),[4],0.387
